Measured values taken from PubChem BioAssay AID623959 (National Center for Advancing Translational Sciences (NCATS), 2012).
Fewer than 10 of roughly 1,400 compounds were called active. Not shown: some 8% with an inconclusive outcome. Calls follow the shape of the dose curve; as a rule, active = well fitted curve in the direction sought with a large enough effect; inconclusive = small, poorly fitted or top-dose-only effect, or another doubt; inactive = no such curve, though single readings can be large or run the other way. The list shows a part of the results.

By UniProt entry, the sequences of proteins in these tests, tags left out.
UniProt Q8NER1, whole entry, looked up: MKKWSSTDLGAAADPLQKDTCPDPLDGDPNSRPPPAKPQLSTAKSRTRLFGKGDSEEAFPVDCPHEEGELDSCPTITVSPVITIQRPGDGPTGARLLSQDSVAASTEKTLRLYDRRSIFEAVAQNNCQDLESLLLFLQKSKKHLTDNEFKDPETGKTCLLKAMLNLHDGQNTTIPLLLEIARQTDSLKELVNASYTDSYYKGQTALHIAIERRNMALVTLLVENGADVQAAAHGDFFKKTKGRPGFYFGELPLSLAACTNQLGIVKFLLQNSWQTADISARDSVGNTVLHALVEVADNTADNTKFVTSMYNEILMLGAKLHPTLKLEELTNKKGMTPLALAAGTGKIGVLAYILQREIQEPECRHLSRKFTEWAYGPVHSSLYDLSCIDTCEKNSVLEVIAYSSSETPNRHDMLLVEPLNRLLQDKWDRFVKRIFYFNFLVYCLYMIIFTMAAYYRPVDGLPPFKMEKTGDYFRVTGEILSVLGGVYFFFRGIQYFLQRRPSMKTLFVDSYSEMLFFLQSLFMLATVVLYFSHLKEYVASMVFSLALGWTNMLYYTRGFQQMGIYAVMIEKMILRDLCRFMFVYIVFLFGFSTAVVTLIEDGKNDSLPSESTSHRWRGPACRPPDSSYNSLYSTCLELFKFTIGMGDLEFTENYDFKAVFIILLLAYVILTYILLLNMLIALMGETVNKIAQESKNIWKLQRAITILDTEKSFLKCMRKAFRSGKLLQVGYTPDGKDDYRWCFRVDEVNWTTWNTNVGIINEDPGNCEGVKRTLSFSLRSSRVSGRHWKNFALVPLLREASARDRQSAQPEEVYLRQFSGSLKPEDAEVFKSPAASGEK

These compounds were tested against Transient receptor potential cation channel subfamily V member 1 (Homo sapiens) (UniProt Q8NER1) (assay: qHTS Assay for Compounds that Act as Potentiators of the Vanilloid Receptor 1: Hit Validation). Conditions: TRPV1-expressing cells, Fluo-8 calcium influx, capsaicin EC20; series mostly up to 42.1 µM; activity change, positive = potentiation: at the top concentration.
Summary of the method: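 TRPV1 cells (2000/well, overnight 35.5 °C) loaded with Fluo-8 calcium dye 40–90 min at room temperature. FDSS fluorescence (ex 480/em 520 nm) read 3 min after compound, then 2 min after capsaicin at EC20.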
For activity change, positive = potentiation in this document: % of control where 0% means no effect.
Potency is read from the fitted curve at half-maximal effect.

| Structure (SMILES) | activity change, positive = potentiation | Potency |
| --- | --- | --- |
| N#Cc1ncc(C(F)(F)F)cc1Sc1ccc(N)cc1 | inactive: -1.41% | – |
| CC(OC(=O)Cc1n[nH]c(=O)c2ccccc12)C(=O)Nc1ccc(F)cc1 (stereo not drawn) | inactive: 11.3% | – |
| O=C(O)CN1C(=O)/C(=C\c2ccc(OC(=O)c3ccco3)cc2)SC1=S | inactive: 11.4% | – |
| CCN(C(=O)COC(=O)c1cncc(Br)c1)C1CCS(=O)(=O)C1 (stereo not drawn) | inactive: 15.8% | – |
| O=C(CCS(=O)(=O)c1ccccc1)Nc1nncs1 | inactive: 1.87% | – |
| O=C(O)c1sccc1S(=O)(=O)N1CCN(c2ccc(C(F)(F)F)cn2)CC1 | inactive: -3.75% | – |
| Cc1sc2ncnc(OCC(=O)N3CC(=O)Nc4ccccc43)c2c1C | inactive: 2.04% | – |
| Cn1cccc1C(=O)NC(=O)COC(=O)c1cc([N+](=O)[O-])ccc1Cl | inactive: 8.04% | – |
| COc1ccc(C(=O)CC(=O)C(=O)Nc2cc([N+](=O)[O-])ccc2OC)cc1 | inactive: -6.17% | – |
| CCN(CC)CC(C)OC(=O)c1cc(OC)c(OC)c(OC)c1 (stereo not drawn) | inactive: 4.12% | – |
| COc1ccc(Nc2nc(NCc3ccco3)nc(N3CCOCC3)n2)cc1 | inactive: -36.9% | – |
| Cc1ccc(S(=O)(=O)NCCN2CCOCC2)cc1C | inactive: -0.504% | – |
| Cn1ncc([N+](=O)[O-])c1C(=O)Nc1ccccc1 | inactive: -1.33% | – |
| NC(=O)c1ccc(-n2nnnc2Oc2ccccc2C(=O)N2CCOCC2)cc1 | inactive: 1.65% | – |
| O=C(NC(=S)Nc1nc(-c2cccc([N+](=O)[O-])c2)cs1)c1ccccc1Cl | inactive: 3.45% | – |
| COc1ccc(-[n+]2c(C)cc(/C=C3\Sc4ccccc4N3C)cc2C)cc1 | – | active: 5.7 µM |
| c1ccc(-c2nnc(CN3CCC4(CC3)OCCO4)o2)cc1 | inactive: -1.85% | – |
| O=C(CC1CCCC1)N1CCCC(Nc2cccc(F)c2)C1 (stereo not drawn) | inactive: -38.1% | – |
| CN(C)C(CNC(=O)CNC(=O)Cc1cccc2ccccc12)c1ccccc1 (stereo not drawn) | inactive: 1.58% | – |
| CCCOc1ccc(C2C(C(=O)/C=C/c3ccco3)=C(O)C(=O)N2CCN2CCOCC2)cc1OC (stereo not drawn) | inactive: -2.86% | – |
| CCC(=O)NC(c1ccc(OC)cc1)c1cc(Cl)c2cccnc2c1O (stereo not drawn) | inactive: -0.694% | – |
| CC(C)(C)c1ccc(C(=O)Nc2ccc(S(N)(=O)=O)cc2)cc1 | inactive: -39% | – |

| Structure (SMILES) | activity change, positive = potentiation | Potency |
| --- | --- | --- |
| CCc1ccc2oc(C(=O)Nc3cccnc3)c(C)c2c1 | inactive: -35.7% | – |
| Cc1ccc2nc(NC(=O)CCCc3nc4ccccc4s3)sc2c1 | inactive: 0.136% | – |
| CCOC(=O)[C@H]1[C@H]2COc3ccc(OC)cc3[C@@H]2N2C(=O)c3cc(C)ccc3NC(=O)[C@@]12C | inactive: -39% | – |
| COc1ccc(CNC(=S)Nc2cccc(F)c2)cc1 | inactive: -32.8% | – |
| CS(=O)(=O)c1ccccc1-c1nc(-c2ccc([N+](=O)[O-])cc2)no1 | inactive: -2.72% | – |
| O=C(O)c1cc(S(=O)(=O)Nc2ccccc2Cc2ccccc2)ccc1Cl | inactive: 7.05% | – |
| CNC(=O)c1csc(-c2ccc(Cl)cc2)n1 | inactive: -37.6% | – |
| O=C(CCC(=O)Nc1nnc(C2CCCCC2)s1)NCc1cccs1 | inactive: -4.56% | – |
| Cc1cc(C)cc(NC(=O)CCn2ccnc2C)c1 | inactive: 0.62% | – |
| CN(Cc1nc2ccccc2n1C)C(=O)c1ccco1 | inactive: 6.29% | – |
| CC(C)(C)c1ccc(C(=O)Nc2cccnc2)cc1 | inactive: -39.5% | – |
| COc1ccc(-n2c(CN3CCN(c4ccc(F)cc4)CC3)nc3ccc([N+](=O)[O-])cc3c2=O)c(OC)c1 | inactive: -3.22% | – |
| CCOC(=O)c1c(N2C(=O)Nc3ccccc3N2O)n[nH]c1-c1cccc(Cl)c1 | inactive: -4.57% | – |
| CCCCn1c(=O)[nH]c2c(oc3ccccc32)c1=O | inactive: 2.87% | – |
| Cc1ccc(Nc2ncnc3sc(C)c(C)c23)cc1 | inactive: -39% | – |
| O=C(CSc1ncccc1-c1nc2ccccc2[nH]1)N1CCc2ccccc21 | inactive: -0.648% | – |
| CN(Cc1c(O)ccc2c1oc(=O)c1ccccc12)C1CCCCC1 | inactive: -11.4% | – |
| Cc1ccc(NC(=O)c2cnc3ccccc3n2)cc1C | inactive: -28.6% | – |
| Cc1cccc(N2CCN(C(=O)NC3CCCCC3)CC2C)c1 (stereo not drawn) | inactive: -33.8% | – |
| CCOC(=O)[C@H]1[C@H]2COc3ccc(C)cc3[C@@H]2N2C(=O)c3ccccc3NC(=O)[C@@]12C | inactive: -38.4% | – |
| COc1cccc(CNC(=S)Nc2cccc(Cl)c2C)c1 | inactive: -38.9% | – |
| O=C(NCc1ccncc1)C1CCCN(S(=O)(=O)c2cc(Cl)ccc2Cl)C1 (stereo not drawn) | inactive: -28.8% | – |

Some of the entries above, reformatted.
Structure (SMILES)	activity change, positive = potentiation	Potency
Cc1sc2ncnc(OCC(=O)N3CC(=O)Nc4ccccc43)c2c1C	inactive: 2.04%	–
COc1ccc(CNC(=S)Nc2cccc(F)c2)cc1	inactive: -32.8%	–
O=C(CSc1ncccc1-c1nc2ccccc2[nH]1)N1CCc2ccccc21	inactive: -0.648%	–
Cc1ccc(NC(=O)c2cnc3ccccc3n2)cc1C	inactive: -28.6%	–

Further compounds follow.

| Structure (SMILES) | activity change, positive = potentiation | Potency |
| --- | --- | --- |
| COc1ccc(Cl)cc1NC(=O)CSc1nc(-c2ccccc2)cc(=O)[nH]1 | inactive: -3.9% | – |
| CC(=O)Nc1cccc(NC(C)=O)n1 | inactive: -5.38% | – |
| CC(=O)N1C(C(=O)O)Cc2c([nH]c3ccccc23)C1(C)C (stereo not drawn) | inactive: -10.9% | – |
| O=C(NCC1COc2ccccc2O1)c1ccc(Br)s1 (stereo not drawn) | inactive: -32.3% | – |
| C=CCOc1ccc(C2C(C(=O)c3ccco3)=C(O)C(=O)N2Cc2cccnc2)cc1 (stereo not drawn) | inactive: 0.175% | – |
| CCOc1ccc(NC(=S)NC(=O)Cc2ccccc2)cc1 | inactive: -38.5% | – |
| COc1ccc(S(=O)(=O)Nc2nc3ccccc3s2)cc1 | inactive: -6.98% | – |
| COC(=O)[C@@]12CCCN1[C@H](c1ccc(-c3ccc4c(c3)OCO4)c(OC)c1)[C@H]1C(=O)N(C)C(=O)[C@H]12 | inactive: -5.16% | – |
| Cc1c(N=c2scc(-c3ccccc3)n2C)c(=O)n(-c2ccccc2)n1C | inactive: 4.71% | – |
| Cc1ccc(S(=O)(=O)NCC(c2cccnc2)N2CCOCC2)cc1 (stereo not drawn) | inactive: -3.52% | – |
| O=C(O)CC1(CC(=O)N2CCOCC2)CCCC1 | inactive: -4.21% | – |
| C/C(=N\NC(=O)c1nnn(-c2nonc2N)c1CN1CCc2ccccc21)c1ccccc1O | inactive: -1.11% | – |
| CN(Cc1ccccc1Cl)C(=O)c1cc2ccccc2o1 | inactive: -15% | – |
| Cc1ccc2oc(=O)c3cnn(CC(=O)N4CCN(c5ccccn5)CC4)c3c2c1 | inactive: -11.8% | – |
| CN(C(=O)COC(=O)CSc1ccc(C(N)=O)cc1[N+](=O)[O-])C1CCCCC1 | inactive: 4.07% | – |
| O=C(O)CSc1nc2sc3c(c2c(=O)n1-c1ccccc1)CCC3 | inactive: 5.51% | – |
| Cc1cc2c(cc1C)NC(c1ccccn1)C1=C(CC(C)(C)CC1=O)N2 (stereo not drawn) | inactive: -3.59% | – |
| CCOCc1cc(CN2CCC(CCC(=O)NC3CC3)CC2)ccc1OC | inactive: 2.44% | – |
| Cc1ccc(C(=O)NC(=S)NNS(=O)(=O)c2ccc(C)cc2)cc1 | inactive: 7.68% | – |
| CCS(=O)(=O)n1c(Cc2cccs2)nc2ccccc21 | inactive: -8.44% | – |
| Cc1nn(-c2nnc(C)c(=O)[nH]2)c(C)c1SCC(=O)Nc1ccc(C(C)C)cc1 | inactive: -6.19% | – |
| O=C(NCc1ccccc1)[C@@H]1C[C@H]1[C@@H](NP(=O)(c1ccccc1)c1ccccc1)c1ccccc1 | inactive: -38.5% | – |

| Structure (SMILES) | activity change, positive = potentiation | Potency |
| --- | --- | --- |
| COc1cc(/C=N/NC(=S)Nc2cccnc2)cc(OC)c1OC | inactive: -9.74% | – |
| CC(C)NC(=O)C(C)N1CCN(S(=O)(=O)c2ccc3ccccc3c2)CC1 (stereo not drawn) | inactive: -6.72% | – |
| Cc1ncoc1C(=O)Nc1ccc(Oc2ccccc2)cc1 | inactive: -24.3% | – |
| Cc1ccc(S(=O)(=O)N2[C@@H](c3ccccc3F)C(C(=O)O)=CC[C@H]2c2cccc(C)c2)cc1 | inactive: -4.23% | – |
| CC(C)C[C@H](NC(=O)c1nc[nH]c1C(=O)N1CCN(c2ccccc2)CC1)C(=O)OC(C)(C)C | inactive: -8.68% | – |
| Cc1ccc(NC(=O)c2cc3ccccc3o2)cc1 | inactive: 2.85% | – |
| CCOC(=O)c1sc2nc(CC(=O)OC)nc(N3CCN(c4ccc(OC)cc4)CC3)c2c1C | inactive: -7% | – |
| CC(C)(C)c1ccc(OCCCC(=O)N2CCOCC2)cc1 | inactive: -39.3% | – |
| CCCCOc1ccc(C(=O)Nc2ccncc2)cc1 | inactive: -39.1% | – |
| O=C(O)c1ccc(S(=O)(=O)NC2CCCCCC2)cc1 | inactive: -17.5% | – |
| COCCn1c(-c2ccc(OC)cc2)cnc1SCC(=O)Nc1cccc2ccccc12 | inactive: -6.92% | – |
| Cc1cccn2c(=O)c3cc(C(=O)NCC4CCCO4)c(=N)n(Cc4ccc(F)cc4)c3nc12 (stereo not drawn) | inactive: -39% | – |
| COc1cc2cc(Oc3ccc4ccc(=O)oc4c3)c(=O)oc2cc1OC(=O)/C=C/c1ccccc1 | inactive: -1.77% | – |
| Cc1cc(C)c(C#N)c(Cl)n1 | inactive: -10.6% | – |
| COc1cc(/C=N/O)cc(Br)c1OS(=O)(=O)c1ccc(C)cc1 | inactive: -12.8% | – |
| Cc1cccc(NCc2cc(Cl)cc(Cl)c2O)n1 | inactive: -19.8% | – |
| O=C(Nc1ccc(F)cc1)c1cc2c(s1)CCCC2 | inactive: -36.6% | – |
| CCOC(=O)c1ccc(NC(=O)N2CCN(c3cccc(OC)c3)CC2)cc1 | inactive: -30.5% | – |
| O=C(Nc1ccc(N2CCCC2)c(Cl)c1)c1ccc([N+](=O)[O-])o1 | inactive: -35.3% | – |
| CCCCNC(=O)C(Sc1ccccc1)c1ccccc1 (stereo not drawn) | inactive: -4.21% | – |
| C[C@H](NC(=O)c1nc[nH]c1C(=O)NCCCCCN)C(=O)OC(C)(C)C | inactive: -12.5% | – |
| O=C(CCCOc1ccc(Cl)cc1)N1CCCCC1 | inactive: -10.7% | – |

| Structure (SMILES) | activity change, positive = potentiation | Potency |
| --- | --- | --- |
| O=C(COC(=O)c1ccc[nH]c1=O)Nc1ccc2c(c1)OC(F)(F)O2 | inactive: 2.13% | – |
| COCC(C)NC(=O)COc1nncc2ccccc12 (stereo not drawn) | inactive: -5.1% | – |
| CC(C)COc1ccc(-c2nnn(CC(=O)N3CCCC3)n2)cc1 | inactive: 0.6% | – |
| COc1ccc(-n2c(COc3ccc(C)cc3)n[nH]c2=S)cc1 | inactive: -4.34% | – |
| CCOc1ccccc1OCCC(=O)NNC(=O)Cn1nc(C)cc1C | inactive: 1.1% | – |
| CC(C)NC(=O)c1ccc2c(=O)n(CC3CCCO3)c(=S)[nH]c2c1 (stereo not drawn) | inactive: -5.52% | – |
| CCOc1ccc(/C(O)=C2/C(=O)C(=O)N(CCCN3CCOCC3)C2c2ccc(C)cc2)cc1C (stereo not drawn) | inactive: -1.29% | – |
| CCOc1cccc(/C(O)=C2/C(=O)C(=O)N(CCOC)C2c2ccco2)c1 (stereo not drawn) | inactive: 1.13% | – |
| CC1CC(C)CN(C(=O)c2cc(S(=O)(=O)N3CCCCC3)ccc2Cl)C1 (stereo not drawn) | inactive: -37.9% | – |
| COc1ccc(N2CCN(S(=O)(=O)c3cccc(C(F)(F)F)c3)CC2)cc1 | inactive: -7.22% | – |
| N#CCCn1cc(C(=O)Nc2ccccn2)c(-c2ccccc2)n1 | inactive: -3.38% | – |
| Cc1cc(NS(=O)(=O)c2ccc(NC(=O)COc3ccc(Cl)cc3)cc2)no1 | inactive: -10.6% | – |
| O=C(N/C=C/c1ccccc1)c1ccccc1 | inactive: -38.8% | – |
| CC(C)C(=O)Nc1ccc(C(=O)CN2C(=O)NC3(CCOc4ccccc43)C2=O)cc1 (stereo not drawn) | inactive: -39% | – |
| COc1ccc2ccc(OC)c(/C=N/n3cnnc3)c2c1 | inactive: -5.87% | – |
| CCN(CC)CCN(C)Cc1nc(C(c2ccccc2)c2ccccc2)no1 | inactive: -4.55% | – |
| Cc1ccc(NC(=O)N(CCC(=O)O)Cc2ccccc2)cc1 | inactive: -4.4% | – |
| COc1ccc(S(=O)(=O)N2CCC(N3CCN(Cc4ccccc4)CC3)CC2)cc1 | inactive: -9.1% | – |
| Cc1cccc(C)c1OCC(=O)Nn1c(=O)[nH]c2ccccc2c1=O | inactive: 9.45% | – |
| CCc1ccc(/C=C2\SC(N3CCOCC3)=NC2=O)cc1 | inactive: -39% | – |
